Assay in all cases: co-IP
Experiment [1] addresses Ino80 tagged with FLAG epitope (S. cerevisiae) (UniProt P53115).
In experiment [2] the target is T1, Nab2-HA (S. cerevisiae) (UniProt P32505).
T1 sequence: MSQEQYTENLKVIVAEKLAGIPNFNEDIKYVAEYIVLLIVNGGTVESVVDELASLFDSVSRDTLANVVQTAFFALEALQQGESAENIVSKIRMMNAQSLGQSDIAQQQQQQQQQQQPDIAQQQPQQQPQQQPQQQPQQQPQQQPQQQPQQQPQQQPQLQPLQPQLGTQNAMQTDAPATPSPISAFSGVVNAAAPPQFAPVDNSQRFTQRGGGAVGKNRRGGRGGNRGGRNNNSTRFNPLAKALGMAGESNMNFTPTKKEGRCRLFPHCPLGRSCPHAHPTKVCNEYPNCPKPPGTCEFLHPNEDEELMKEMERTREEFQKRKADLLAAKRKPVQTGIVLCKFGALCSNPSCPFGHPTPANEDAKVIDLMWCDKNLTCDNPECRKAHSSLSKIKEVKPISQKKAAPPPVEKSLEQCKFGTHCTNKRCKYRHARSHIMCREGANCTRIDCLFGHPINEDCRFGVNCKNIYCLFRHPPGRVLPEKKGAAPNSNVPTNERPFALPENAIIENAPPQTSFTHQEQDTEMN

Amino acid sequences for entries named in this document (tags omitted).
UniProt P53115, whole entry: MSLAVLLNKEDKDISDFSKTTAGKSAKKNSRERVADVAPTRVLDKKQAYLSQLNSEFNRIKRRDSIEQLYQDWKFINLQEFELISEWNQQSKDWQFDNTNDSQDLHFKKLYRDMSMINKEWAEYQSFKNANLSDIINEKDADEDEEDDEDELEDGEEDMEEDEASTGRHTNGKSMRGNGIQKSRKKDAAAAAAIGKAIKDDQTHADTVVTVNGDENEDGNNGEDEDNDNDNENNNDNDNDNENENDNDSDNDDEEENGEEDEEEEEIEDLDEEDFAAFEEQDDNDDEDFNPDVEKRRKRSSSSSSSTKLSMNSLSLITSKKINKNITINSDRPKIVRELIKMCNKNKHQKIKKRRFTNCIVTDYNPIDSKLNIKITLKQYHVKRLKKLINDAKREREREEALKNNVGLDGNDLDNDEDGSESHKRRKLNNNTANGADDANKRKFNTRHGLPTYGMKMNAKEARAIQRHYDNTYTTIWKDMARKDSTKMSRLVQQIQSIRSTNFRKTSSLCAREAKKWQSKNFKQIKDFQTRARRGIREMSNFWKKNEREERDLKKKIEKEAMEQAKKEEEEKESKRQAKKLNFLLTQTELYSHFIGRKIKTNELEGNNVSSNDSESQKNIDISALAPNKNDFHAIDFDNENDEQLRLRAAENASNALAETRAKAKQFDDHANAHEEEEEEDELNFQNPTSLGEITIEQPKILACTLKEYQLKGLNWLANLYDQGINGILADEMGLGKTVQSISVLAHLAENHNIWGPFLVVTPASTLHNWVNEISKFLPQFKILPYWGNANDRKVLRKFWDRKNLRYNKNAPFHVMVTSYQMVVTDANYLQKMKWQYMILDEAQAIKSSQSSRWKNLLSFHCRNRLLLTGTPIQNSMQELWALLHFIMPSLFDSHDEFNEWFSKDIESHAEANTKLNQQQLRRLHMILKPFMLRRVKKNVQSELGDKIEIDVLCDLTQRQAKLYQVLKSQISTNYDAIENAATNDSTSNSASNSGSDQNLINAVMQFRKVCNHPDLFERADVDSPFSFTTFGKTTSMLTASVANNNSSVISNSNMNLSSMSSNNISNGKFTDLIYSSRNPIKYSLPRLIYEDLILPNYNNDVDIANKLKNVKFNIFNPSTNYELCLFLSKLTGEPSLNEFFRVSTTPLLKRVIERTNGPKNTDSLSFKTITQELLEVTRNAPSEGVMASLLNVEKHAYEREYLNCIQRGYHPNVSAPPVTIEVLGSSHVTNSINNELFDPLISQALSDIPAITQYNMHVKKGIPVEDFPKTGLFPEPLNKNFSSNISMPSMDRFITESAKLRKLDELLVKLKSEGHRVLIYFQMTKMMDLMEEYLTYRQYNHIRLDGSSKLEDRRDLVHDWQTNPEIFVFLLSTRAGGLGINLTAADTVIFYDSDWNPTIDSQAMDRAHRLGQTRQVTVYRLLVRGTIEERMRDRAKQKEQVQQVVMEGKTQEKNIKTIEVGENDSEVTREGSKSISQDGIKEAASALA
UniProt P39081, whole entry: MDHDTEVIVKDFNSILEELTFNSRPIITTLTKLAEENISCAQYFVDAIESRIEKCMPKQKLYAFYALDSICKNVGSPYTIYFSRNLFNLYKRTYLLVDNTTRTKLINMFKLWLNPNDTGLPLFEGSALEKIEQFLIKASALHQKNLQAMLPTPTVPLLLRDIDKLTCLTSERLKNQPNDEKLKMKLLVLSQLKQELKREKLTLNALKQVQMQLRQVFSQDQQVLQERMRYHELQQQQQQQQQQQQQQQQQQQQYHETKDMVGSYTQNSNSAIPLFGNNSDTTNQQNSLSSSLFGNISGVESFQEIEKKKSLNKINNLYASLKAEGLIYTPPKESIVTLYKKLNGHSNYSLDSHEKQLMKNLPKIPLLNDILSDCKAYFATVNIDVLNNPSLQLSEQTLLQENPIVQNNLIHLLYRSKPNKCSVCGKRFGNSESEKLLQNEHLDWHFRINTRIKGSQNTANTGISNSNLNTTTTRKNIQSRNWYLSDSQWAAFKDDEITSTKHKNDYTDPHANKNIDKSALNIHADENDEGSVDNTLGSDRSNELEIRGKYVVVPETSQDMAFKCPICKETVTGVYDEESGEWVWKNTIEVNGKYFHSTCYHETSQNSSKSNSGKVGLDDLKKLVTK
UniProt P04050, whole entry: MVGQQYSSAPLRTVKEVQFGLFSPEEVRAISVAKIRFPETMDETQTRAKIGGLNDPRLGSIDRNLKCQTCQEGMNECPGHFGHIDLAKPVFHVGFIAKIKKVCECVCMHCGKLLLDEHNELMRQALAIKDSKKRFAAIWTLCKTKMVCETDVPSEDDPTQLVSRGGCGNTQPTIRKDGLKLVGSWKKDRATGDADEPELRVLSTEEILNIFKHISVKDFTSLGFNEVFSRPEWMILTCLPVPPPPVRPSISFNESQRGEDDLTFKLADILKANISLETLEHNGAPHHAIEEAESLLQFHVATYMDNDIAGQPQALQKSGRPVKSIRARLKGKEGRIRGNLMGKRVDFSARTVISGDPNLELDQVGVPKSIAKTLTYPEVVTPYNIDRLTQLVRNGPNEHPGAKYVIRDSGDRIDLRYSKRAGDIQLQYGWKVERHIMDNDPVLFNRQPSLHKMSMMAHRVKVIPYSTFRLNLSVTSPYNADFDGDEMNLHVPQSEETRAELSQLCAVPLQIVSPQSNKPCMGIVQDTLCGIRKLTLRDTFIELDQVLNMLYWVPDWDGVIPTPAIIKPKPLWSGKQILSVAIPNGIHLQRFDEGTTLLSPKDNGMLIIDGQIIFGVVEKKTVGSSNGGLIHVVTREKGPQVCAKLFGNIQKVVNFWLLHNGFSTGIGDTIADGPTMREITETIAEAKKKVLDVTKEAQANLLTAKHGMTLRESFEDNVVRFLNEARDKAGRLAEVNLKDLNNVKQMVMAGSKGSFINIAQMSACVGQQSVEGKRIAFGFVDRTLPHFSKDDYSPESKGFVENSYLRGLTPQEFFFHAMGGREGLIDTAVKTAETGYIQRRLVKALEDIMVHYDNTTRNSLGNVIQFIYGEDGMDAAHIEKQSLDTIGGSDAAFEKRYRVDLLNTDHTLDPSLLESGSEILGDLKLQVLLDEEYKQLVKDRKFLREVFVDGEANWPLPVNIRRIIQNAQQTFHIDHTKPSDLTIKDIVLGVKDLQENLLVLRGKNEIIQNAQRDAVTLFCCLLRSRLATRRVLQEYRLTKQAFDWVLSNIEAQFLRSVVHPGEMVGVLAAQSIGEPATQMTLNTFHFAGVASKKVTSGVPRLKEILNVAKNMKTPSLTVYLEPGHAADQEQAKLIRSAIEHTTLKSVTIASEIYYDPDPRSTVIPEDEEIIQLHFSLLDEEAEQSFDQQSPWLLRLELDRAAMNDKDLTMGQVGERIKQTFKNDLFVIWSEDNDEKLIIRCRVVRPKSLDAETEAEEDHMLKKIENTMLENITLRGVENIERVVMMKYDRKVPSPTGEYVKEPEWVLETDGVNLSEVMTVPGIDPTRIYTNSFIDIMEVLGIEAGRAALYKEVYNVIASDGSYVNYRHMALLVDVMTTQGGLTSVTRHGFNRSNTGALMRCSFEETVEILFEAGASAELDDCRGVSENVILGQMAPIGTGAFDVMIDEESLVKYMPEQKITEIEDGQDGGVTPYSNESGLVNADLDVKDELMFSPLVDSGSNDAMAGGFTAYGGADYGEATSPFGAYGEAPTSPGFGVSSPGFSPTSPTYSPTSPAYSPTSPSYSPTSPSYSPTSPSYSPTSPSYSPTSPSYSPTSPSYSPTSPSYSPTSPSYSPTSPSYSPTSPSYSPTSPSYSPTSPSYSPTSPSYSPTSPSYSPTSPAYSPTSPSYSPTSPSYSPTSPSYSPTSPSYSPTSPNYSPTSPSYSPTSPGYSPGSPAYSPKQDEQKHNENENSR

Experiment [3] addresses T1, Nab2-HA (S. cerevisiae). The source holds these as a separate data set.
In experiment [4] the target is Ino80 tagged with FLAG epitope (S. cerevisiae) (UniProt P53115). The source holds these as a separate data set.

Where two headings read alike, the source gives them in different places. No constants are given. Whether binding was seen depends on the method and setting. In cells and extracts the contact can be indirect. Some results given as binding are weak or reduced against the parent protein; the word gives no strength. For some of these results: Tags and fused reporters may be left off the sequences shown.

Take Pcf11-HA (from UniProt P39081 1-626): in experiment [1], the binding entry is given as “no binding”.
Turning to Rpb1 (from UniProt P04050 1-1733), in the experiment with Nab2-HA (S. cerevisiae) [2], the binding result is recorded as “binds”.

B1: Arp5 (protein, UniProt P53946 1-755)
chain: MSSRDASLTPLKAVVIDDPPLRQTPEPFDEQSAYNPQSPIAIDFGSSKLRAGFVNHATPTHIFPNALTKFRDRKLNKNFTFVGNDTLLDQAVRSQSRSPFDGPFVTNWNLTEEILDYTFHHLGVVPDNGIPNPILLTERLATVQSQRTNWYQILFETYNVPGVTFGIDSLFSFYNYNPSGNKTGLVISCGHEDTNVIPVVDGAGILTDAKRINWGGHQAVDYLNDLMALKYPYFPTKMSYLQYETMYKDYCYVSRNYDEDIEKILTLENLDTNDVVVEAPFTEVLQPQKTEEELRIQAEKRKETGKRLQEQARLKRMEKLVQKQEEFEYFSKVRDQLIDEPKKKVLSVLQNAGFDDERDFKKYLHSLEQSLKKAQMVEAEDDSHLDEMNEDKTAQKFDLLDIADEDLNEDQIKEKRKQRFLKASQDARQKAKEEKERVAKEEEEKKLKEQQWRETDLNGWIKDKRLKLNKLIKRRKEKLKLRDEMKDRKSQVSQNRMKNLASLAEDNVKQGAKRNRHQATIDNDPNDTFGANDEDWLIYTDITQNPEAFEEALEYEYKDIVELERLLLEHDPNFTEEDTLEAQYDWRNSILHLFLRGPRPHDSENIHEQHQMHLNVERIRVPEVIFQPTMGGQDQAGICELSETILLKKFGSQPGKLSQTSIDMVNNVLITGGNAKVPGLKERIVKEFTGFLPTGTNITVNMSSDPSLDAWKGMAALARNEEQYRKTVISKKEYEEYGPEYIKEHKLGNTKYFED
As to B1, the binding result in the experiment with Nab2-HA (S. cerevisiae) [3] is “binds”.

B2: Nrd1-HA (protein, UniProt P53617 1-575)
chain: MQQDDDFQNFVATLESFKDLKSGISGSRIKKLTTYALDHIDIESKIISLIIDYSRLCPDSHKLGSLYIIDSIGRAYLDETRSNSNSSSNKPGTCAHAINTLGEVIQELLSDAIAKSNQDHKEKIRMLLDIWDRSGLFQKSYLNAIRSKCFAMDISNNTANTASQQLSLDPKQRSKQILSNLKKSPPLNLNISLPTDLTSTDPAKQQAALFQVIAALQKHFKTLPSHTSVGTVAPPQAHTITEYGSRRERERERERYNSRRNRSRSPPAPFSQPSTGRKDRYPSVAQDQYSIGAPNTTFGTNNHHLYPDELNVSNNPHYRPKPVSYDSTLPPDHIKVYSRTLFIGGVPLNMKEWDLANVLKPFAEVQSVILNNSRKHAFVKVYSRHEAENVLQNFNKDGALPLRTRWGVGFGPRDCCDYQHGYSIIPMHRLTDADKKWSVSAQWGGTSGQPLVTGIVFEEPDIIVGEGVSSKAISQKMPTDSGRNGPRSGKPNKSGSISSISPVPYGNAPLASPPPQQYVQPMMQQPYGYAPNQPLPSQGPAAAAPPVPQQQFDPTAQLNSLMNMLNQQQQQQQQS
As for B2, the binding result in experiment [4] was “binds”.

(Values after doi:10.1101/2020.03.02.973685.)
